According to patent publication US5473051A, “Inhibition of Mac-1 receptor binding to fibrinogen using D30 homologs” (The Scripps Research Institute, priority 1991, dated 1995):
Not every detail of the peptide structures is certain; ends, links or a residue may be inferred. Some entries repeat one wording, which the source may state once for all of them. Ends that are not written are not given here.

What was measured:
neutrophils or monocytes = assay: Cell attachment to polypeptide-coated wells; assay type: cell-based, human
Experimental: To determine the Mac-1 receptor-binding site on the gamma chain of D30, the synthetic polypeptides prepared above were separately evaluated in cell attachment assays. For these assays, wells of 96-well microtiter plates (Linbro/Titertek; Flow Laboratories, VA) were coated with 60 μl of a 1 mg/ml solution of individual synthetic polypeptides prepared above. The wells containing the dissolved polypeptides were maintained for 16 hours at 4° C. The wells were then washed twice with PBS and blocked for 30 minutes with 0.1% BSA in PBS. After a final wash, 100 μl of DMEM containing 1% fetal bovine serum and 2×10^5 cells/ml of either neutrophils or monocytes prepared respectively in Example 2B and Example 8D were admixed into each well. The cells were maintained for 30 minutes at room temperature to allow the cells to attach to the polypeptide-coated wells. Non-adherant cells were removed from the wells by washing twice with PBS. Adherent wells were fixed for 20 minutes with 3% paraformaldehyde at room temperature.
Adherent cells were quantitated by staining with 0.5% crystal violet. The plates were rinsed once to remove excess stain before drying. The stain remaining in the wells was then solubilized in 0.1M citric acid in 50% ethanol, pH 4.2. The optical density (O.D.) at 550 nm was determined with an ELISA reader (Biotek Instruments). Non-specific adherence was determined by plating cells on BSA-coated wells for the appropriate period of time. Specific adhesion to a given polypeptide substrate was calculated by subtracting the O.D. obtained with cells plated on BSA from that observed for cells plated on individual polypeptides.
Alternatively, the stained cells were examined visually under an inverted microscope with a 20×objective lens. The specificity of the receptor-binding site defined by these cell-attachment promoting polypeptides was further characterized in the binding and inhibition of binding assays described below. The polypeptides used in the assays are subsequently referred to by the "Polypeptide Designation" as indicated in Table 1 and not by their SEQ ID NO.

THP-1 cells = assay: Inhibition of THP-1 cell attachment to fibrinogen-coated wells; assay type: cell-based, human; conditions: for inhibition of THP-1 cell attachment to fibrinogen (in words): 0.03 to 1 mg/ml polypeptide
Experimental: Cell attachment assays were performed to determine if the Plb polypeptide (SEQ ID NO 13) which was derived from the gamma chain of D30 from residue 195 to residue 201 would inhibit the binding of THP-1 cells to fibrinogen-coated plates as effectively as the larger polypeptide, P1 (SEQ ID NO 12). The assays were performed as described in Example 8C with the following modifications: the microtiter wells were coated with 10 μg/ml of fibrinogen overnight at room temperature to form fibrinogen-coated wells; the unoccupied sites on the wells were then blocked to prevent non-specific background with 3% gelatin for 30 minutes at room temperature; 2×10^5 THP-1 cells prepared as described in Example 8D2) were separately admixed with the polypeptides P1, […] and L10, the latter of which served as a control, ranging in concentration from 0.03 mg/ml to 1 mg/ml to form THP-1 cell-polypeptide admixtures; the resultant admixtures were maintained for 30 minutes at room temperature after which time the cells were admixed to the fibrinogen-coated plates as described in Example 8C.
The results of the inhibition of cell attachment assay are shown above in Table 2. The absorbance of crystal violet stain, indicating the relative number of cells that attached to the fibrinogen-coated wells, was measured at 600 nm. The absorbance values are tabulated in columns according to the concentration of each polypeptide separately tested in the assay. […] These six amino acid residues comprise the Mac-1 receptor binding site of fibrinogen.

Mac-1 receptor [1] = molecular target: T1, Mac-1 receptor (Homo sapiens, UniProt P05107+P11215); assay: Inhibition of 125I-P1 binding to THP-1 cells; parameters: Separate aliquots of the resuspended Mac-1 receptor-bearing neutrophils were stimulated with 10 μM of the chemotactic peptide; endogenous in cells; conditions: antibodies 50 μg/ml intact IgG; one hour
Experimental: Similar binding assays and inhibition thereof were performed using the monocytic cell line THP-1 (ATCC TIB 202, Bethesda, Md.). THP-1 cells were maintained in RPMI 1640 supplemented with 10% fetal bovine serum (HyClone, Logan, UT), 20 mM Hepes, 100 μg/ml gentamycin, 2 mM L-glutamine and 10 μM beta-mercaptoethanol. The competitive inhibitors evaluated in the assay to compete for the binding of the labeled P1 polypeptide to THP-1 cells included the following:D30 prepared as described in Example 1; the irrelevant polypeptide L10 described above; the monoclonal antibody IB4 which recognizes the beta subunit of the Mac-1 receptor (Wright et al., Proc. Natl. Acad. Sci., USA, 80:5699-5703 (1983); the monoclonal antibody M1/70 which recognizes the alpha subunit of the Mac-1 receptor (Ho et al., J. Biol. Chem., 258:2766-2769 (1983); and a monoclonal antibody against tissue factor as described by Morrisey et al., Thromb. Res., 52:247-261 (1988 ).
The assays in which D30 or polypeptides derived therefrom were performed as described above and in Example 6. The assays in which antibodies were used as competitive inhibitors were performed as described in Example 2C using 50 μg/ml of each antibody. […] The amount of binding of radiolabelled P1 polypeptide to THP-1 cells was measured after a […] maintenance period in the absence or presence of unlabelled competitors. […]

Mac-1 receptor [2] = molecular target: T1, Mac-1 receptor; assay: Binding of 125I-P1 to monocytes and competition; parameters: Separate aliquots of the resuspended Mac-1 receptor-bearing neutrophils were stimulated with 10 μM of the chemotactic peptide; endogenous in cells; host or cells: neutrophils from blood of normal volunteers, stimulated with fMLP; conditions: 1 mg/ml cold polypeptide
Experimental: Anticoagulated blood was prepared as described in Example 2B. After resuspending the pelleted erythrocytes, mononuclear and polynuclear cells with a volume equal to the starting blood volume with chilled 0.14M PBS, 35 ml of the cell suspension were layered onto 15 ml of Ficoll-Hypaque (Pharmacia) in a 50 ml polypropylene tube and centrifuged at 400×g for 40 minutes at room temperature. The cells at the interface were carefully removed with sterile plastic pipettes and were then washed two times with excess 5 mM PBS-EDTA (ethylene diamine tetracetic acid). The washed cells were then centrifuged first at 400×g for 20 minutes at 4° C., the pellet was resuspended as above, then the suspension was centrifuged again at 120×g for 12 minutes at 4° C. The cell pellet was again resuspended to form a PMBC cell suspension. […]
Human monocytes were purified from the platelet-free PMBC cell suspension as described by Fischer et al., Academic Press, Inc., New York, pp: 43-47 (1981). […] The purity of the monocyte preparation was greater than 90% as assessed by alpha-naphthyl acetate esterase staining and the viability was greater than 95% as judged by trypan blue exclusion. […]
The specific cell-associated binding of radiolabelled P1 to monocytes was measured over 60 minutes at 10 minute intervals and was calculated as described in Example 6. […]

Mac-1 receptor [3] = molecular target: T1, Mac-1 receptor; assay: Inhibition of 125I-fibrinogen binding to THP-1 cells by polypeptide; parameters: Separate aliquots of the resuspended Mac-1 receptor-bearing neutrophils were stimulated with 10 μM of the chemotactic peptide; endogenous in cells; host or cells: neutrophils from blood of normal volunteers, stimulated with fMLP; conditions: 7 to 60 μg/ml polypeptide
Experimental: The specificity of the P1 polypeptide for the Mac-1 receptor on THP-1 cells was confirmed in assays where the binding of purified intact fibrinogen to THP-1 cells was inhibited by P1 but not by the irrelevant polypeptide, L10. The assays were performed as described in Example 6 with the exception that THP-1 cells prepared as described in Example 8D were used instead of neutrophils. The amount of polypeptide used in the assay ranged in concentration from 7 μg/ml up to 60 μg/ml.
The amount of radiolabelled fibrinogen bound to THP-1 cells was expressed as molecules/cell ×1000 and plotted on the ordinate against increasing polypeptide concentrations as shown in FIG. 7.

| Sequence | promotion of cell attachment (in words) (neutrophils or monocytes) | inhibition of THP-1 cell attachment to fibrinogen (in words) (THP-1 cells) | Absorbance at 600 nm (THP-1 cells attached to fibrinogen) (THP-1 cells; polypeptide 0.03 mg/ml) | Absorbance at 600 nm (THP-1 cells attached to fibrinogen) (THP-1 cells; polypeptide 0.125 mg/ml) | Absorbance at 600 nm (THP-1 cells attached to fibrinogen) (THP-1 cells; polypeptide 0.5 mg/ml) | Absorbance at 600 nm (THP-1 cells attached to fibrinogen) (THP-1 cells; polypeptide 0.60 mg/ml) | Absorbance at 600 nm (THP-1 cells attached to fibrinogen) (THP-1 cells; polypeptide 1.0 mg/ml) | inhibition of radiolabelled P1 binding to THP-1 cells (Mac-1 receptor [1]) | competition of 125I-P1 binding to monocytes (Mac-1 receptor [2]) | inhibition of fibrinogen binding to THP-1 cells (in words) (Mac-1 receptor [3]) |
| --- | --- | --- | --- | --- | --- | --- | --- | --- | --- | --- |
| GQKRLDGS [G10, GQKRLDGS] | promoting cells attachment |  |  |  |  |  |  |  |  |  |
| WTVFQKRLDGSV [G8, WTVFQKRLDGSV] | promoting cells attachment |  |  |  |  |  |  |  |  |  |
| LGGAKQAGDV [L10, LGGAKQAGDV, reference compound] |  | did not significantly inhibit | 1.38 | 1.37 | 0.93 | 0.90 | 1.00 | did not result in significant inhibition | increases over time and not | lack of inhibition and not |
| KYGQKRLDGS [P1b, KYGQKRLDGS] | promoting cells attachment | complete inhibition | 0.52 | 0.35 | 0.50 | 0.43 | 0.44 |  |  |  |
